Measured values: article PMC8888484, “Ubr1-induced selective endophagy/autophagy protects against the endosomal and Ca^2+-induced proteostasis disease stress” (Cellular and Molecular Life Sciences: CMLS, 2022)
Where a chain is given by its changes, count along the chain named. No constants are given. Whether binding was seen depends on the method and setting. Binding seen in cells or lysates may run through a third protein. Binding can be weak; no strength is given.

Tests used:
[1] = target: T1, 2HA-MLC1-S280L (human (by the printed GeneID 23209; the paper does not say the species in words)) (UniProt Q15049); test: proximity ligation; Duolink PLA between HA (MLC1, anti-HA internalised 30 min in live cells or bound to the surface of fixed cells) or EEA1 and Flag (Ubr1) epitopes in fixed cells
T1 sequence: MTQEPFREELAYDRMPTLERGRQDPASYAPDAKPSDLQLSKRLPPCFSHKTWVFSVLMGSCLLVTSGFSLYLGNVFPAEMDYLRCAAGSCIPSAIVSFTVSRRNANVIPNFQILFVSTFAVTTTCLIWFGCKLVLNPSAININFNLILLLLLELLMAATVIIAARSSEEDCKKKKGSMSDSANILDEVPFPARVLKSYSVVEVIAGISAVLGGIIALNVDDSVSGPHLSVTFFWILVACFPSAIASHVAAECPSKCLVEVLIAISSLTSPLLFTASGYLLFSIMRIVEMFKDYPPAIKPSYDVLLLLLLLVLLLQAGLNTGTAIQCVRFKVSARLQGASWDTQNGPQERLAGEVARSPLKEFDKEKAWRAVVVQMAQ

[2] = target: T1, 2HA-MLC1-S280L (human (by the printed GeneID 23209; the paper does not say the species in words)); test: cross-linking + co-IP; mild in vivo cross-linking with dithiobis(succinimidyl propionate) 0.05 mM, 10 min, room temperature, then cs-IP of S280L/GlialCAM with anti-GlialCAM Ab without denaturation
[3] = target: T2, 2HA-MLC1-C326R (human (by the printed GeneID 23209; the paper does not say the species in words)) (UniProt Q15049); test: co-IP; cell surface immunoprecipitation (cs-IP): anti-GlialCAM Ab bound to live HeLa cells 45 min on ice, unbound Ab washed off, lysis (0.4% NP-40 in co-IP assays), MLC1/GlialCAM complex precipitated, Western blot; signals normalised to precipitated MLC1; for Fig. 7G cells with siUbr1 or siNT and Flag-Ubr1-wt or -CI
T2 sequence: T1 sequence with L280S, C326R

[4] = target: T3, 2HA-MLC1-P92S (human (by the printed GeneID 23209; the paper does not say the species in words)) (UniProt Q15049); test: as above
T3 sequence: T1 sequence with P92S, L280S

Substance	binding [1]	binding [2]	binding [3]	binding [4]
Flag-Ubr1-CI (catalytically inactive Ubr1, C1011 mutated to alanine)	binds	binds weakly		
Flag-Ubr1-wt (ubiquitin-protein ligase E3 component N-recognin 1)	binds	binds weakly		
Hsp90 (isoform not told in this experiment) (human (endogenous in HeLa))			binds	binds
